Measurements reported in PubChem BioAssay AID1259405 (NCATS, 2018)

- Aim: 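Knock-downs that lift recombinant protein yield in hamster ovary cells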 (primary screen)
- Cells: Chinese hamster CHO-K1 ovary cells with stable secreted eGFP expression
- Knock-down reagent: single siRNA against mouse genes, 0.8 pmol siRNA per well (2 µl of 400 nM stock)
- Timing: 3 days
- Measurement: 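Per-well intracellular GFP measured by laser scanning cytometry, plus viability from ATP luminescence, each relative to plate median of non-targeting control wells, in %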
- Scale: GFP, % of control: higher = more GFP per well, higher productivity; viability (ATP), % of control: higher = more viable cells (more ATP)
- Hit rule: 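a knock-down is called active if GFP reaches 120% or more of non-targeting control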
The deposit covers about 50,000 reagents; shown is a part drawn at random. About 4,000 of them (8%) count as active. 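Mouse siRNA library applied to hamster cells; one well for each siRNA.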 Entries without a mark were called inactive. The numbers tell different reagents against one gene apart.

Slc16a11 #1 → GFP, % of control = 135 (active); viability (ATP), % of control = 71.7
Slc16a11 #2 → GFP, % of control = 90.9; viability (ATP), % of control = 42.5
Slc16a11 #3 → GFP, % of control = 104; viability (ATP), % of control = 77.4
Scd1 #1 → GFP, % of control = 87.8; viability (ATP), % of control = 69.3
Scd1 #2 → GFP, % of control = 76.1; viability (ATP), % of control = 70.6
Scd1 #3 → GFP, % of control = 129 (active); viability (ATP), % of control = 76
Ugt1a6b #1 → GFP, % of control = 65.7; viability (ATP), % of control = 89
Ugt1a6b #2 → GFP, % of control = 219 (active); viability (ATP), % of control = 153
Ugt1a6b #3 → GFP, % of control = 78.7; viability (ATP), % of control = 109

Next part; the last 2 above are carried over.
Ugt1a6b #2 → GFP, % of control = 219 (active); viability (ATP), % of control = 153
Ugt1a6b #3 → GFP, % of control = 78.7; viability (ATP), % of control = 109
Csn3 #1 → GFP, % of control = 45.6; viability (ATP), % of control = 58.5
Csn3 #2 → GFP, % of control = 201 (active); viability (ATP), % of control = 67.3
Csn3 #3 → GFP, % of control = 120 (active); viability (ATP), % of control = 131
Rfx1 #1 → GFP, % of control = 106; viability (ATP), % of control = 102
Rfx1 #2 → GFP, % of control = 78.5; viability (ATP), % of control = 67.1
Rfx1 #3 → GFP, % of control = 103; viability (ATP), % of control = 97.7
Pigm #1 → GFP, % of control = 88.9; viability (ATP), % of control = 44.2
Pigm #2 → GFP, % of control = 86.8; viability (ATP), % of control = 74.5
Pigm #3 → GFP, % of control = 86.5; viability (ATP), % of control = 97.6
